# Screening data

Source: PubChem BioAssay AID1224904 (Broad Institute, 2016).

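Control-channel Italica luciferase signal in doxycycline-induced 293T-iDUX4 cells, given as percent activity after a 24-hour treatment. The test concentration is not given here. Percent change in the Italica control signal; more negative values mean stronger inhibition, which points to nonspecific, tet-on or cytotoxic effects.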

Values are in %. Common to all entries: measured here: Italica tet-on control reporter. This is a side read-out of the assay, for part of the compounds, not drawn at random.

structure,activity change (%)
Fc1ccccc1-c1ccc(C2[C@@H]3CN(Cc4ccccc4)C[C@H]2N3)cc1 (some centres not stated),-95.82
C[C@H]1CN([C@@H](C)CO)C(=O)c2ccccc2-c2ccccc2CO[C@H]1CN(C)S(=O)(=O)c1ccccc1F,2.775
COc1cccc(-c2ccc([C@H]3[C@@H](CO)N4CCCCN(S(=O)(=O)c5cccs5)C[C@@H]34)cc2)c1,-81.92
CN1c2ccc(-c3cccc(F)c3)cc2[C@@H]2[C@@H](CCN2C(=O)C2CCOCC2)[C@H]1CO,-17.06
O=C(C[C@H]1C[C@H]2c3cc(NS(=O)(=O)c4ccc(F)cc4)ccc3O[C@H]2[C@H](CO)O1)NCCc1ccccc1,-12.23
COc1cc(CN2CC3(CCN(C(=O)Nc4cccc(F)c4)CC3)c3c(n(C)c4cc(OC)ccc34)[C@@H]2CO)cc(OC)c1,11.26
COc1ccc2c3c([nH]c2c1)[C@@H](CO)N(Cc1ccncc1)CC31CN(Cc2ccc(-c3ccccn3)cc2)C1,-31.09
OC[C@@H]1[C@H](c2ccc(Br)cc2)[C@H]2CN(Cc3ccccn3)CCCCN12,12.39
CCCC#Cc1ccc([C@H]2[C@H](CO)N3C(=O)CN(C(=O)Nc4ccccc4)C[C@@H]23)cc1,-13.87
COc1cccc(CN2CCC3(CC2)CN(C(=O)Nc2ccc(F)cc2)[C@H](CO)c2c3c3ccc(OC)cc3n2C)c1,-68.14
COc1ccc(-c2ccc3c(c2)[C@H]2[C@H](CCN2S(=O)(=O)c2ccc(OC)cc2)[C@H](CO)N3)cc1,-62.89
CC(C)NC(=O)N1CCCCN2[C@H](CO)[C@@H](c3ccc(C#Cc4ccccc4F)cc3)[C@@H]2C1,-40.42
O=C(C[C@@H]1C[C@@H]2c3cc(NC(=O)Nc4ccc(C(F)(F)F)cc4)ccc3O[C@@H]2[C@@H](CO)O1)NCCc1ccccc1,-25.31
COc1ccccc1NC(=O)N1C[C@@H](O)COC[C@H]2O[C@@H](CC(=O)N3CCC(Cc4ccccc4)CC3)CC[C@@H]21,-14.19
CN(C)C(=O)C[C@H]1CC[C@@H]2[C@H](COC[C@@H](O)CN2Cc2ccc(C(F)(F)F)cc2)O1,1.54
COc1ccc(C#Cc2ccc([C@@H]3[C@@H](CO)N4CCCCN(C(=O)Nc5ccccc5F)C[C@H]34)cc2)cc1,-10.22
CN1c2ccc(C#Cc3cccnc3)cc2[C@@H]2[C@@H](CCN2C(=O)c2cccc(F)c2)[C@@H]1CO,-1.265
O=C(c1ccc(F)cc1)N1CC(=O)N2[C@H](CO)[C@H](c3ccc(C#CC4CCCCC4)cc3)[C@H]2C1,-12.61
N#Cc1cccc(-c2ccc3c(c2)[C@@H]2[C@@H](CCN2Cc2ccncc2)[C@@H](CO)N3)c1,-6.185
CS(=O)(=O)N1CC2(C1)[C@@H](c1ccccc1)[C@@H](CO)N2Cc1ccccn1,3.382
c1cncc(-c2ccc(C3[C@@H]4CN(Cc5nccs5)C[C@H]3N4)cc2)c1 (some centres not stated),-34.28
COc1cccc(S(=O)(=O)N2CCCCN3[C@H](CO)[C@H](c4ccc(C5=CCCCC5)cc4)[C@H]3C2)c1,-43.56
O=C(C[C@@H]1CC[C@@H]2[C@H](COC[C@H](O)CN2CCc2ccccc2)O1)NCc1ccc(Oc2ccccc2)cc1,-29.66
COc1ccccc1C#Cc1ccc2c(c1)[C@H]1[C@H](CCN1C(=O)c1ccc(F)cc1)[C@@H](CO)N2,-17.68
C[C@@H]1CN([C@H](C)CO)C(=O)c2c(c3ccccc3n2C)-c2ccccc2CO[C@@H]1CN(C)Cc1ccc2c(c1)OCO2,-8.818
O=C(C[C@H]1CC[C@@H]2[C@H](COC[C@H](O)CN2Cc2cc(F)ccc2F)O1)NCc1ccc(Cl)cc1,-16.83
Cc1ccc(S(=O)(=O)Nc2ccc3c(c2)C(=O)N([C@H](C)CO)C[C@H](C)[C@H](CN(C)Cc2ccc4c(c2)OCO4)OCCCC[C@@H](C)O3)cc1,-60.82
OC[C@@H]1[C@@H](c2ccc(C#Cc3cccnc3)cc2)[C@@H]2CN(Cc3ccccc3F)CCCCN12,-35.33
COc1ccccc1S(=O)(=O)N(C)C[C@@H]1Oc2cc(C#CCC(C)C)ccc2S(=O)(=O)N([C@H](C)CO)C[C@@H]1C,-12.58
O=C(c1ccc2c(c1)OCO2)N1CC(=O)N2[C@H](CO)[C@@H](c3ccc(C#Cc4ccccc4)cc3)[C@@H]2C1,-20.46
O=C(C[C@@H]1CC[C@H]2[C@@H](COC[C@H](O)CN2Cc2cccc(Cl)c2)O1)Nc1nccs1,-11.38
CS(=O)(=O)N1CC(=O)N2[C@H](C1)[C@@H](c1ccc(C#CCc3ccccc3)cc1)[C@@H]2CO,7.051
COc1ccccc1CN1C[C@@H]2N[C@H](C1)C2c1ccc(-c2ccccc2OC)cc1 (some centres not stated),-63.15
O=C(C[C@H]1CC[C@H]2[C@@H](COC[C@@H](O)CN2Cc2ccc3c(c2)OCO3)O1)Nc1ccc(-c2ccccc2)cc1,-41.09
O=C(C1CCCC1)N1CC2(C1)[C@H](c1ccccc1)[C@H](CO)N2Cc1ccc(Cl)cc1,-19.51
COc1ccc2c3c([nH]c2c1)[C@@H](CO)N(C)CC31CN(S(=O)(=O)c2ccc(C)cc2)C1,-16.06
O=C(C[C@@H]1C[C@H]2c3cc(NS(=O)(=O)c4ccc(F)cc4)ccc3O[C@H]2[C@H](CO)O1)NCc1ccc(Oc2ccccc2)cc1,-68.6
COc1cccc(S(=O)(=O)N2C[C@@H]3N[C@H](C2)C3c2ccc(-c3ccc(C(=O)N(C)C)cc3)cc2)c1 (some centres not stated),-19.7
O=C(C1CCOCC1)N1C[C@@H]2N[C@H](C1)C2c1ccc(-c2ccccc2F)cc1 (some centres not stated),4.252
CCCC#Cc1ccc([C@@H]2[C@H](CO)N3CCCCN(C(=O)c4ccc5c(c4)OCO5)C[C@@H]23)cc1,-38.18
COc1ccc(C#Cc2ccc([C@@H]3[C@H]4CN(C(C)=O)CC(=O)N4[C@H]3CO)cc2)cc1,-8.496
CN(C)C(=O)c1ccc(-c2ccc(C3[C@@H]4CN(Cc5ccccc5Cl)C[C@H]3N4)cc2)cc1 (some centres not stated),-17.25
COc1cccc(-c2ccc3c(c2)[C@H]2[C@H](CCN2C(=O)c2cccc(F)c2)[C@H](CO)N3)c1,-38.77
COc1ccc(C#Cc2ccc([C@@H]3[C@@H](CO)N4C(=O)CN(C(=O)c5cccnc5)C[C@@H]34)cc2)cc1,-11.62
N#C[C@H]1[C@@H](c2ccccc2C2=CCCCC2)[C@@H](CO)N1C(=O)Nc1ccccc1F,-41.92

The last 3 entries again:

structure	activity change (%)
COc1cccc(-c2ccc3c(c2)[C@H]2[C@H](CCN2C(=O)c2cccc(F)c2)[C@H](CO)N3)c1	-38.77
COc1ccc(C#Cc2ccc([C@@H]3[C@@H](CO)N4C(=O)CN(C(=O)c5cccnc5)C[C@@H]34)cc2)cc1	-11.62
N#C[C@H]1[C@@H](c2ccccc2C2=CCCCC2)[C@@H](CO)N1C(=O)Nc1ccccc1F	-41.92